Isolated yield data for one substance are collected here from patent US6180767A (Thomas Jefferson University, priority 1997, dated 2001).

A short description of this data set: general procedure: Boc solid-phase peptide synthesis. The settings on record: whole synthesis, calculated from area under HPLC peak.

“H-Gly-CCGCTTCCTTTC-Gly-Gly-Gly-Gly-D-Cys-D-Ser-D-Lys-D-Cys-NH2”: the isolated yield result is on record as “almost 90%”.
